These are yes or no findings as the source states them, for the method shown. In cells and extracts the contact can be indirect. Some results given as binding are weak or reduced against the parent protein; the word gives no strength. For some of these results: Where a sequence is shown, tags or fusion partners need not be part of it. One block for each binder: values may come before it.
Key:
[1] = target: T1, SFPQ-N (1–371 amino acid residues), Flag-tagged (UniProt P23246); assay: co-IP; HA-tagged TRIM59 (full-length or truncated) with Flag-tagged SFPQ (full-length or truncated); cells not given; western blot
T1 sequence: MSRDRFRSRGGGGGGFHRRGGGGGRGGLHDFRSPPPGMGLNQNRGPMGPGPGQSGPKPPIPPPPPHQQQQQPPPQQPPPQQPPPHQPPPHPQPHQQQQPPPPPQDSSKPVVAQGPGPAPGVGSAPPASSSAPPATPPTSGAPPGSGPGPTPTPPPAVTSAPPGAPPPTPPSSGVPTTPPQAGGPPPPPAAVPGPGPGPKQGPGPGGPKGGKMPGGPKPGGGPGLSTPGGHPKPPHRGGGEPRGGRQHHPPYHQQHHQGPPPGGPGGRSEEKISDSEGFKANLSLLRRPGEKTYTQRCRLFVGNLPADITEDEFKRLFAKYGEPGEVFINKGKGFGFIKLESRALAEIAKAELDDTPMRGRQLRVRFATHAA

Protein sequences, listed by entry. Tags and fused reporters are not part of them.
UniProt P52294: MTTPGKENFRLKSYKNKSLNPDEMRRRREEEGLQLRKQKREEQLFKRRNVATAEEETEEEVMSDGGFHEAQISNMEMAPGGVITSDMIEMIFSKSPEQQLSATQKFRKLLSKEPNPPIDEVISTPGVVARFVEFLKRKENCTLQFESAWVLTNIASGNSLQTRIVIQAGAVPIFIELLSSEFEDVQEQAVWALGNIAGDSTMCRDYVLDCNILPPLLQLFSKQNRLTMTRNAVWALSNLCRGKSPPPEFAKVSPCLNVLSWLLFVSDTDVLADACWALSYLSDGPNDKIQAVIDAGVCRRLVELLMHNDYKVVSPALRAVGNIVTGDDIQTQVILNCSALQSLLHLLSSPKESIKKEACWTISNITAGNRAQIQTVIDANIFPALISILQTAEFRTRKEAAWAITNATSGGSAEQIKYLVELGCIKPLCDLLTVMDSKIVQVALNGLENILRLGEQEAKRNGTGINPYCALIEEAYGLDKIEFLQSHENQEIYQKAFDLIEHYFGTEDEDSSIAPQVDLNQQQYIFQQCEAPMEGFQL
UniProt Q99873: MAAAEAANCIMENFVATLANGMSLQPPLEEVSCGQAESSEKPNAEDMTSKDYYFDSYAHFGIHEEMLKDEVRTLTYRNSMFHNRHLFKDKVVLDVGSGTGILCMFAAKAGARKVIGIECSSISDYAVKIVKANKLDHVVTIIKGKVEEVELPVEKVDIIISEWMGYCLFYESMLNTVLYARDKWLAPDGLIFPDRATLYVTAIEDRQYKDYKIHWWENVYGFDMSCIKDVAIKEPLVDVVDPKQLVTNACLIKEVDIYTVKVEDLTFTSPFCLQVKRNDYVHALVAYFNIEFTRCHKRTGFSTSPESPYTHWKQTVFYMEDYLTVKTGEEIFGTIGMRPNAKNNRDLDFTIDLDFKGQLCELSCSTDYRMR

[2] = target: T2, full-length Flag-tagged SFPQ (UniProt P23246); assay: as above
T2 sequence: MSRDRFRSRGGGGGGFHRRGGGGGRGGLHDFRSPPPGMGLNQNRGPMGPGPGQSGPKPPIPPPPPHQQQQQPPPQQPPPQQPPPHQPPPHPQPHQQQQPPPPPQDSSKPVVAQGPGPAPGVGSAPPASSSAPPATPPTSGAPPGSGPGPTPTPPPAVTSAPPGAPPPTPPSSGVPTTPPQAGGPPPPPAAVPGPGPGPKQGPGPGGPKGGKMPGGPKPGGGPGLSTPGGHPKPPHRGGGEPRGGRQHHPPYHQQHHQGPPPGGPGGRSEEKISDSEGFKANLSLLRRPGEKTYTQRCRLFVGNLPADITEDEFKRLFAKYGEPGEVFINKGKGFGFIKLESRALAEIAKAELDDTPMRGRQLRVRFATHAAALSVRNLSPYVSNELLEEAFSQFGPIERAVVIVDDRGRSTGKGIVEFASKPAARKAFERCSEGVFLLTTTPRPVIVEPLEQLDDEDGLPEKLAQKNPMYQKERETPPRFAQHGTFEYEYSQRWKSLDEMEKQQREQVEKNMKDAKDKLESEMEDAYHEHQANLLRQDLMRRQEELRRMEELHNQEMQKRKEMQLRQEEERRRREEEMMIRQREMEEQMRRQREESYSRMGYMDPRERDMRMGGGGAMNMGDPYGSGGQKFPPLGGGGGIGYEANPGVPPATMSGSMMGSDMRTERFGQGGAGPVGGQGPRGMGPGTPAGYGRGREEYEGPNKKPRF

[3] = target: importin α5 (human (endogenous in SK-N-BE(2))) (UniProt P52294); assay: co-IP; SK-N-BE(2) cell lysates (IP lysis buffer: 20 mM Tris-HCl pH 7.4, 150 mM NaCl, 0.5% Triton X-100, 0.5% deoxycholate, 1 mM DTT), protein A/G-agarose and indicated antibodies, 4 °C overnight, western blot; reciprocal IP for PRMT1; some panels with cells carrying shC or shTRIM59
[4] = target: PRMT1 (human (endogenous in SK-N-BE(2) and CHP-134)) (UniProt Q99873); assay: as above

binding [1]: binds
binding [2]: binds
B1: full-length HA-tagged TRIM59 (protein, UniProt Q8IWR1 1-403)
chain: MHNFEEELTCPICYSIFEDPRVLPCSHTFCRNCLENILQASGNFYIWRPLRIPLKCPNCRSITEIAPTGIESLPVNFALRAIIEKYQQEDHPDIVTCPEHYRQPLNVYCLLDKKLVCGHCLTIGQHHGHPIDDLQSAYLKEKDTPQKLLEQLTDTHWTDLTHLIEKLKEQKSHSEKMIQGDKEAVLQYFKELNDTLEQKKKSFLTALCDVGNLINQEYTPQIERMKEIREQQLELMALTISLQEESPLKFLEKVDDVRQHVQILKQRPLPEVQPVEIYPRVSKILKEEWSRTEIGQIKNVLIPKMKISPKRMSCSWPGKDEKEVEFLKILNIVVVTLISVILMSILFFNQHIITFLSEITLIWFSEASLSVYQSLSNSLHKVKNILCHIFYLLKEFVWKIVSH

binding [3]: binds
binding [4]: binds
B2: TRIM59 (protein, UniProt Q8IWR1 1-403)
chain: B1 chain
